{"sequences": {"note": "Protein sequences, listed by entry. Tags and fused reporters are not part of them.", "UniProt Q0JBA9, entry or part of it": "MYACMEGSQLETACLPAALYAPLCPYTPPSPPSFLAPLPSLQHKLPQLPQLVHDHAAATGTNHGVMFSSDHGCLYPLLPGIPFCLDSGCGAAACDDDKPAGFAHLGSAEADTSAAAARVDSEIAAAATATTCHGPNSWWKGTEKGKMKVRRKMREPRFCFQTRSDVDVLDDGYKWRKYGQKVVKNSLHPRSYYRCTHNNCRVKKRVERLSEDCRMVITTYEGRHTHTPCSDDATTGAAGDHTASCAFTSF"}, "source": "paper PMC7819943", "about": "“Rice protein-binding microarrays: a tool to detect cis-acting elements near promoter regions in rice”", "note": "The other results are listed elsewhere or left out.", "data": [{"molecular_target": "OsWRKY34 (Oryza sativa, UniProt Q0JBA9 1-250)", "assay": "protein-binding microarray (RPBM); PBS, 2% BSA, 51.3 ng/ul salmon testes DNA, 50 uM zinc acetate, 200 nM TF, 25 C, 1 h; high values mean tight binding", "details": "protein: recombinant; tags: N-terminal polyhistidine and DsRed monomer fusion (pET32a); label: CyDye5-dUTP incorporated in the synthesized complementary strand; 3' TTTTT single-stranded linker to array surface; dsDNA, one strand shown", "outline": "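Ni–NTA purification followed expression in E. coli BL21-CodonPlus of transcription factors fused N-terminally to a polyhistidine tag and DsRed. At 200 nM in PBS with 2% BSA, salmon testes DNA and 50 µM zinc acetate, the protein was incubated for 1 h at 25 °C with a custom Agilent array that had been primer-extended with Cy5-dUTP and blocked with 2% BSA. After washing, the array was read on an Axon 4000B scanner. The binding signal is per-feature fluorescence intensity in arbitrary units.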", "values": [{"sequence": "CTGAATATGTAGTTTTATGATACAACACTTTAAATTTATACGGAGTCACCTAGTGCAG", "binding signal": "8100 fluorescence intensity (a.u.)"}, {"sequence": "CACACCATGCATCCGTCCGCATATACCCTGTCAACAATGTCGGAGTCACCTAGTGCAG", "binding signal": "9320 fluorescence intensity (a.u.)"}, {"sequence": "GCCCCGGTCCTCAAGTACCTTGACAATGTTCCCTTTGCCACGGAGTCACCTAGTGCAG", "binding signal": "12500 fluorescence intensity (a.u.)"}, {"sequence": "CCGCGACTTCGCCCGCCGCGCCGCGCCGCGCCGCCCTGCGCGGAGTCACCTAGTGCAG", "binding signal": "8390 fluorescence intensity (a.u.)"}, {"sequence": "TGTGCAATACCAAATCCTGACCGTTGATCTAGCATCATTCCGGAGTCACCTAGTGCAG", "binding signal": "8192 fluorescence intensity (a.u.)"}, {"sequence": "TGTCTTTTGTAAGAATGAGGTTGTAACTCTTTTTCTTGTTCGGAGTCACCTAGTGCAG", "binding signal": "9670 fluorescence intensity (a.u.)"}, {"sequence": "TAATACTCTTCTCGCTAAATATTTAGTTTCTATTGCAACTCGGAGTCACCTAGTGCAG", "binding signal": "10600 fluorescence intensity (a.u.)"}, {"sequence": "TCAGGGTGTTGGGCAGATCAGTTCACTTGGTTAGCGAGCGCGGAGTCACCTAGTGCAG", "binding signal": "13500 fluorescence intensity (a.u.)"}, {"sequence": "GCCTGATGTCCAGCACGCAGGTCCCATCTCGCCGAGCGCTCGGAGTCACCTAGTGCAG", "binding signal": "8160 fluorescence intensity (a.u.)"}, {"sequence": "CTCCTCCCAACTTTCCCCTTTGCTACAGTAGCTCCTTCTTCGGAGTCACCTAGTGCAG", "binding signal": "8100 fluorescence intensity (a.u.)"}, {"sequence": "GTCTCCATCAAGTTTATAACCGCTCGCGTCGCGCCCATCTCGGAGTCACCTAGTGCAG", "binding signal": "11900 fluorescence intensity (a.u.)"}, {"sequence": "TATACACACAAACCGCTGACCCTTCTACCGTGGAAACAACCGGAGTCACCTAGTGCAG", "binding signal": "8600 fluorescence intensity (a.u.)"}, {"sequence": "CACTCCAGTCAGTCCACGCCCACACCGCCGCCGCCCGCATCGGAGTCACCTAGTGCAG", "binding signal": "10700 fluorescence intensity (a.u.)"}, {"sequence": "CCCAAAGTATTGATCGTTTTTGTTTATCATTTTGCTGGATCGGAGTCACCTAGTGCAG", "binding signal": "10300 fluorescence intensity (a.u.)"}, {"sequence": "GAATAGTCAAACATATTTTAAAAAGTCAACGTAGTCACACCGGAGTCACCTAGTGCAG", "binding signal": "11900 fluorescence intensity (a.u.)"}, {"sequence": "TTTGTAACACTACTTGCCCTTTTTCACATTGCATCATCGTCGGAGTCACCTAGTGCAG", "binding signal": "9080 fluorescence intensity (a.u.)"}, {"sequence": "GTTTCCTAAGGTGTTTAGGACTTCTAGTATGAGTTTGGTTCGGAGTCACCTAGTGCAG", "binding signal": "8030 fluorescence intensity (a.u.)"}, {"sequence": "TTGCAACGGATTTTACTGGGCTTATGGGCTTCTTTTATTGCGGAGTCACCTAGTGCAG", "binding signal": "9700 fluorescence intensity (a.u.)"}, {"sequence": "ATACTCTCTACTGCTTGTCTCGCTCATTTCAAACATTCTTCGGAGTCACCTAGTGCAG", "binding signal": "10000 fluorescence intensity (a.u.)"}, {"sequence": "AGAATGGAGGGTGTACGTCTTTTAATCACATTCTTTCATACGGAGTCACCTAGTGCAG", "binding signal": "8500 fluorescence intensity (a.u.)"}, {"sequence": "TGGTCTTGCCTCTCGCTTAGCCTTTTTGTTGCCTTGTGCTCGGAGTCACCTAGTGCAG", "binding signal": "12300 fluorescence intensity (a.u.)"}, {"sequence": "TACTTGTGTTTATCTGAATTAGTGTTGTGGGGTTTATTTACGGAGTCACCTAGTGCAG", "binding signal": "11700 fluorescence intensity (a.u.)"}, {"sequence": "TAAAGTTGTGCCATTGTTTATTTCTGTTATGGTTAGGTTCCGGAGTCACCTAGTGCAG", "binding signal": "9430 fluorescence intensity (a.u.)"}, {"sequence": "CCCATGCATGCCCTCTTGTTCTCTCCACCGCGAAACATGACGGAGTCACCTAGTGCAG", "binding signal": "10500 fluorescence intensity (a.u.)"}, {"sequence": "TCAGCAATCTCTCTTTCTACTAGGGTCTCTTCTACCAGCGCGGAGTCACCTAGTGCAG", "binding signal": "8070 fluorescence intensity (a.u.)"}, {"sequence": "GAACACGCACCGACTAAATGTTAAATTTTTTTTCTTCACTCGGAGTCACCTAGTGCAG", "binding signal": "9280 fluorescence intensity (a.u.)"}, {"sequence": "AGGGAAAGATACTCAGCTGCTTTTGTTCAGTTATTCTTCCCGGAGTCACCTAGTGCAG", "binding signal": "11100 fluorescence intensity (a.u.)"}, {"sequence": "GGTTGAGTCAGTGTGTGTGTGTCGTGCTGCTGCATGTGTGCGGAGTCACCTAGTGCAG", "binding signal": "10400 fluorescence intensity (a.u.)"}, {"sequence": "TTTTGCGTGCTTCCAGCTTATCATGAACCTCGTCACAACGCGGAGTCACCTAGTGCAG", "binding signal": "11300 fluorescence intensity (a.u.)"}, {"sequence": "TGCTGCTCTTGACACCACGTCGTTGCTGCCCTGCTTCCACCGGAGTCACCTAGTGCAG", "binding signal": "11200 fluorescence intensity (a.u.)"}, {"sequence": "AGGGGCGGAGGGCAGCGATTTTGGTTGGTAGTAGTACGGGCGGAGTCACCTAGTGCAG", "binding signal": "10500 fluorescence intensity (a.u.)"}, {"sequence": "ACTGCCGTGCCAGTTTGTTTCAGCAAAGTATGTTTTTGCTCGGAGTCACCTAGTGCAG", "binding signal": "8970 fluorescence intensity (a.u.)"}, {"sequence": "TTATTTTTGTGGTCTATTTACTATTTTACTATTTATTTTTCGGAGTCACCTAGTGCAG", "binding signal": "8300 fluorescence intensity (a.u.)"}, {"sequence": "TTGCTTTTTTATGCTCAATGCTGTCTGTTTTATCAGAAACCGGAGTCACCTAGTGCAG", "binding signal": "8680 fluorescence intensity (a.u.)"}, {"sequence": "TAGTTAACTCTTTAATTCGTTTCGCTTTTCTGATTGCGAACGGAGTCACCTAGTGCAG", "binding signal": "8620 fluorescence intensity (a.u.)"}, {"sequence": "TCATGCATATCCCTGATTTCTCTTTTCTCGCATTTTTTTCCGGAGTCACCTAGTGCAG", "binding signal": "11400 fluorescence intensity (a.u.)"}, {"sequence": "TCCCCAAATTTGTCCGTACCCTAAGGTCACGATACCGTTCCGGAGTCACCTAGTGCAG", "binding signal": "8880 fluorescence intensity (a.u.)"}, {"sequence": "TCTGTACCCATCCCATCTGCAAACCGAATTTCCGATCGATCGGAGTCACCTAGTGCAG", "binding signal": "10300 fluorescence intensity (a.u.)"}, {"sequence": "TATAGTTCATCCTCACTTAGTTAGTGCTTAAATGATTAATCGGAGTCACCTAGTGCAG", "binding signal": "9040 fluorescence intensity (a.u.)"}, {"sequence": "TTCTCTGTTTTTTTTTCCCTGCTAGTTCATCCTGTCGCCACGGAGTCACCTAGTGCAG", "binding signal": "12600 fluorescence intensity (a.u.)"}, {"sequence": "ACACCACCCAACACCACCACACCACATTTACATTACATTACGGAGTCACCTAGTGCAG", "binding signal": "11800 fluorescence intensity (a.u.)"}, {"sequence": "GCTTTGATGATGCACTCATCACCTTCACACGTCGGATCTACGGAGTCACCTAGTGCAG", "binding signal": "10300 fluorescence intensity (a.u.)"}, {"sequence": "TCTACTGTCATGCTTCCTTGTCCCATTACTACATCGTCATCGGAGTCACCTAGTGCAG", "binding signal": "10100 fluorescence intensity (a.u.)"}, {"sequence": "TGCCACTTGTAGTTTTTATTGACGGTCGATATGATGGTCTCGGAGTCACCTAGTGCAG", "binding signal": "8060 fluorescence intensity (a.u.)"}, {"sequence": "GGGCGTGGTGGTGGTGGTGGTGGTTATACGGTTTTCGGTTCGGAGTCACCTAGTGCAG", "binding signal": "25900 fluorescence intensity (a.u.)"}, {"sequence": "TTCTTTCCTTACGATTTTTGCTCCTGCTCTAGTTCTTGTTCGGAGTCACCTAGTGCAG", "binding signal": "8140 fluorescence intensity (a.u.)"}, {"sequence": "AGACTCGTCGATGCTGGCGTCACCACCGTCCCCGACTTCTCGGAGTCACCTAGTGCAG", "binding signal": "9030 fluorescence intensity (a.u.)"}, {"sequence": "AGGAGCTTTGGTTTGGTTCGGTTTGTTATTAGGAAGGAGACGGAGTCACCTAGTGCAG", "binding signal": "8550 fluorescence intensity (a.u.)"}, {"sequence": "ATAGTTTTCATGTTTTTCACGCGCCAAATCGCCCCAACTACGGAGTCACCTAGTGCAG", "binding signal": "8260 fluorescence intensity (a.u.)"}, {"sequence": "TATATGTTGGGATGGAGGGAATAGCTATTTACTTTTTTTTCGGAGTCACCTAGTGCAG", "binding signal": "9640 fluorescence intensity (a.u.)"}, {"sequence": "TCCCGCCGCCGCCGCCTCGCGCCGCCACCTCCGCCTCGCGCGGAGTCACCTAGTGCAG", "binding signal": "8270 fluorescence intensity (a.u.)"}, {"sequence": "CTCGCCGAGCTCGAGCTCGATCCATCGCCCGCCAGCCATGCGGAGTCACCTAGTGCAG", "binding signal": "8810 fluorescence intensity (a.u.)"}, {"sequence": "AGCCTCATGTTGACTACGAGTCTCAGCACGGACCCTAAAGCGGAGTCACCTAGTGCAG", "binding signal": "9510 fluorescence intensity (a.u.)"}, {"sequence": "GTGGTGAATAGATAGATAGTGCGCGCTTCGGCCGGTCCCCCGGAGTCACCTAGTGCAG", "binding signal": "9040 fluorescence intensity (a.u.)"}]}]}
